Laboratory results published in paper PMC10033651.
Results are given in words; binding and its absence hold for the method and conditions named. In cells and extracts the contact can be indirect.

Sequences of proteins named here, by UniProt entry; tags and fusion partners are left off. A change or cut given only in a name is not applied to a line headed by its entry. A line that says so, or that is headed by a name, gives the form on record, which may keep a tag or linker.
UniProt Q14694: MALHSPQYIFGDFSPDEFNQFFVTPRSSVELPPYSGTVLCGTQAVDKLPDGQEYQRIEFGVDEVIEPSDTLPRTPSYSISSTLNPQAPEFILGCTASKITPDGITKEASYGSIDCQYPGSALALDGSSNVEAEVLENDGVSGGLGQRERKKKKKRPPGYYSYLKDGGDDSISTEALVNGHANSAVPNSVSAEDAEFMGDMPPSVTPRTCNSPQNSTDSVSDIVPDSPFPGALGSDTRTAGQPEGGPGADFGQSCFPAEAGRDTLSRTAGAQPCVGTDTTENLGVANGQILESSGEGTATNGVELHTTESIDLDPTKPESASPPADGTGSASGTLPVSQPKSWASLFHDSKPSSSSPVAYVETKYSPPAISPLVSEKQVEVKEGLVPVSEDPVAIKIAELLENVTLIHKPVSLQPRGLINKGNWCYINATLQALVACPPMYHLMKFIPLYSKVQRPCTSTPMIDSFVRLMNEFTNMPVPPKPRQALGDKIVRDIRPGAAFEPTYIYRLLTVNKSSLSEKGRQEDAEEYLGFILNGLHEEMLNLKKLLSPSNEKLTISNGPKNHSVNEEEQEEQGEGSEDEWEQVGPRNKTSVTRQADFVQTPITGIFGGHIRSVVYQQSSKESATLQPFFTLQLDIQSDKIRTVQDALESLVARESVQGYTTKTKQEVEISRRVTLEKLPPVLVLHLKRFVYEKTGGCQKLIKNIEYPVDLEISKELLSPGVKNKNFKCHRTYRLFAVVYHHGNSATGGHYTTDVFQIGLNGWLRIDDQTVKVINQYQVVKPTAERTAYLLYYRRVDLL
His-tagged full-length (FL) RUNX1 (Q01196-8, form named): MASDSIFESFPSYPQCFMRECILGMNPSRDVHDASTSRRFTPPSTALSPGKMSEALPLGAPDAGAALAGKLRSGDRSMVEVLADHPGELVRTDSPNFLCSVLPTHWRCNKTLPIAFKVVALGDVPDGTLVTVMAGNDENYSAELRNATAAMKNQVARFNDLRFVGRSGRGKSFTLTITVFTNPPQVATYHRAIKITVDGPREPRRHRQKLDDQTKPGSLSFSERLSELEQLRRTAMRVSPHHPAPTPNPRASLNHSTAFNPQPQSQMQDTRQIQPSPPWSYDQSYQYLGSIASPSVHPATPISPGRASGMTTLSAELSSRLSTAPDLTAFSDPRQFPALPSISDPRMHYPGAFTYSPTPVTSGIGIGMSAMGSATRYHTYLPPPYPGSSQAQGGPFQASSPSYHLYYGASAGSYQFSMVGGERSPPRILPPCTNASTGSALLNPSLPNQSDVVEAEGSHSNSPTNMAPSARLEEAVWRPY

Biological target: Flag-tagged USP10 deletion mutant lacking the N-terminal regulatory domain (1-206) (UniProt Q14694)
Test: co-IP; His-RUNX1 and Flag-USP10 (full length, C424A or deletion mutants) in HEK293T cells; NETN buffer, protein A/G agarose beads, 4 °C, four washes

His-tagged full-length (FL) RUNX1 (from UniProt Q01196-8 1-480)
binding: no binding
